Measurements as given in article PMC5693993.
Results are given in words; binding and its absence hold for the method and conditions named. In cells and extracts the contact can be indirect. Here binding means that the protein was enriched with, or labelled near, the bait; the list need not be complete. Tags and fused reporters may be left off the sequences shown. One block for each binder: values may come before it.

Biological target: T1, Flag-GFP tagged Unc93B1 (mouse) (UniProt Q8VCW4)
T1 sequence: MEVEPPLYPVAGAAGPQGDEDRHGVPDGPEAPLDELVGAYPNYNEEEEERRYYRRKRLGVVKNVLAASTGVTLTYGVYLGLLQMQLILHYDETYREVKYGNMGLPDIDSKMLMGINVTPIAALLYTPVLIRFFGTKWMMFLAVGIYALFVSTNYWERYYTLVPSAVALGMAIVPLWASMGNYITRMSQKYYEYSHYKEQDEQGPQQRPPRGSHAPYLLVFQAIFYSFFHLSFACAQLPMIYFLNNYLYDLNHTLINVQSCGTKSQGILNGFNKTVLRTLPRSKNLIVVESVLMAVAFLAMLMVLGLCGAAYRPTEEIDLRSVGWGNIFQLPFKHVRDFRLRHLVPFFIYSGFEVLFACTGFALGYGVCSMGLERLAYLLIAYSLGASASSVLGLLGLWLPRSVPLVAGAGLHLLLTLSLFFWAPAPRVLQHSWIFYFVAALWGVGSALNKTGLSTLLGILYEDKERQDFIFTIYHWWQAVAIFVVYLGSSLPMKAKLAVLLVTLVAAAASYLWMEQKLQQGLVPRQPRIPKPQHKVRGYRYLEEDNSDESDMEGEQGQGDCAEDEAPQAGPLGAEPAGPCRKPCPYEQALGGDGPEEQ
Assay: affinity purification with mass spectrometry; Flag-GFP tagged Unc93B1 expressed in BM-cDCs, 1% digitonin lysate, anti-Flag M2 agarose, Flag peptide elution, LC-MS/MS, SAINT analysis; Flag-GFP as negative control

binding: binds
B1: Arl8a (protein, UniProt Q8VEH3 1-186)
chain: MIALFNKLLDWFKALFWKEEMELTLVGLQYSGKTTFVNVIASGQFNEDMIPTVGFNMRKITKGNVTIKLWDIGGQPRFRSMWERYCRGVSAIVYMVDAADQEKIEASKNELHNLLDKPQLQGIPVLVLGNKRDLAGALDEKELIEKMNLSAIQDREICCYSISCKEKDNIDITLQWLIQHSKSRRS

binding: binds
B2: Arl8b (protein, UniProt Q9CQW2 1-186)
chain: MLALISRLLDWFRSLFWKEEMELTLVGLQYSGKTTFVNVIASGQFSEDMIPTVGFNMRKVTKGNVTIKIWDIGGQPRFRSMWERYCRGVNAIVYMIDAADREKIEASRNELHNLLDKPQLQGIPVLVLGNKRDLPNALDEKQLIEKMNLSAIQDREICCYSISCKEKDNIDITLQWLIQHSKSRRS
